From PMC6258734
These are yes or no findings as the source states them, for the method shown. For part of these data: In cells and extracts the contact can be indirect. Some entries that bind do so weakly or less than the wild type. For part of these data: Sequences can lack the tags named with a protein. Values belong to the binder of their own block, whether it stands above or below them.

Columns and labels:
DBD-Yen1 (S. cerevisiae) = biological target: T1, DBD-Yen1 (S. cerevisiae) (UniProt P40028); experiment: two-hybrid; yeast two-hybrid, AD and BD fusions; growth on medium lacking leucine and tryptophan, then spotted on medium lacking histidine to detect a positive interaction
T1 sequence: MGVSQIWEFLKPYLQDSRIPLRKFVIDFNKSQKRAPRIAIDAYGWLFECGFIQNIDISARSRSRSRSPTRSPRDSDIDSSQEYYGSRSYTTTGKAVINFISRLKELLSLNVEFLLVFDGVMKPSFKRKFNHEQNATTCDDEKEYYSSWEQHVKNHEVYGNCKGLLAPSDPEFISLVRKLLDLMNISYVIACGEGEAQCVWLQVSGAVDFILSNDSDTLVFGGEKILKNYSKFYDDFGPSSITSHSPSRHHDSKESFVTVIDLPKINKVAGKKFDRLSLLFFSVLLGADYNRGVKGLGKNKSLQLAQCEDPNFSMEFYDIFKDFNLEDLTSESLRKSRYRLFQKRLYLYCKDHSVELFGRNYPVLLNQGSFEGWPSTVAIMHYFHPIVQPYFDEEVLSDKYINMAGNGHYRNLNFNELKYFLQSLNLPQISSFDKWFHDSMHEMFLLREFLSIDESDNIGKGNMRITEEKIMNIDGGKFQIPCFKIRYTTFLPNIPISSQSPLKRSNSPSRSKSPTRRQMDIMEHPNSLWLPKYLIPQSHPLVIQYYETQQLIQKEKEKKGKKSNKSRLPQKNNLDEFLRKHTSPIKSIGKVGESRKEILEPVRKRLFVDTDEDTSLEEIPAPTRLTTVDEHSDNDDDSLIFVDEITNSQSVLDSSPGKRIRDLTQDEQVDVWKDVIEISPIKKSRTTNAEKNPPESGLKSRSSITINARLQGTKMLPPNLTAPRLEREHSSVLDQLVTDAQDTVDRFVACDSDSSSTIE

VC-Slx5 (S. cerevisiae) = biological target: T2, VC-Slx5 (S. cerevisiae) (UniProt P32828); experiment: split reporter; BiFC (Venus fragments VN and VC) in live diploid S. cerevisiae, galactose inducible alleles, live microscopy; controls lacking one or both tagged proteins used to subtract background; signal in discrete nuclear foci
T2 sequence: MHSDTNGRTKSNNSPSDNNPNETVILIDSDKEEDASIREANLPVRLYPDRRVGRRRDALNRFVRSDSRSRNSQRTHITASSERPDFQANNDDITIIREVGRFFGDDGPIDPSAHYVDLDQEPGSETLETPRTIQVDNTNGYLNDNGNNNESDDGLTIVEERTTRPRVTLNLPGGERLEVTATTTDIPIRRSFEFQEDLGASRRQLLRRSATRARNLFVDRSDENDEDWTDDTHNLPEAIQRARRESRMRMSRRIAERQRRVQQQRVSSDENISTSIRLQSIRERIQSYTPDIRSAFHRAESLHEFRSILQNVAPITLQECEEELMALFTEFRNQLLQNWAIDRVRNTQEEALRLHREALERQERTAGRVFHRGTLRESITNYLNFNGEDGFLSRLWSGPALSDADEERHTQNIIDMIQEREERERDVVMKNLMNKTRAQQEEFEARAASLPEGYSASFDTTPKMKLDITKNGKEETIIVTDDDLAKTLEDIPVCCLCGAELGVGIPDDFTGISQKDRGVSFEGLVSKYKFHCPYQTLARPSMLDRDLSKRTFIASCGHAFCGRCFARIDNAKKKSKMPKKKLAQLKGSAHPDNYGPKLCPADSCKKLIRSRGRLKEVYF

GST-Slx5 (S. cerevisiae) = biological target: T3, GST-Slx5 (S. cerevisiae) (UniProt P32828); experiment: pull-down; lysate of YEN1-HA cells with galactose-induced GST-Slx5 (or empty vector) bound to Glutathione Sepharose in IP buffer (40 mM Tris-HCl pH 7.5, 10% glycerol, 0.1% NP40, 150 mM NaCl); eluted in Laemmli buffer, blotted with anti-HA and anti-GST
T3 sequence: T2 sequence

binding (DBD-Yen1 (S. cerevisiae)): binds
B1: AD-Slx5 (protein, UniProt P32828 1-619)
chain: T2 sequence

binding (VC-Slx5 (S. cerevisiae)): binds
B2: VN-Yen1 (protein, UniProt P40028 1-759)
chain: T1 sequence

binding (GST-Slx5 (S. cerevisiae)): binds
B3: Yen1-HA (protein, UniProt P40028 1-759)
chain: T1 sequence
